# From publication PMC11878095, “Interspecies signaling modulates the biosynthesis of antimicrobial secondary metabolites related to biological control activities of Pseudomonas fluorescens 2P24” (Microbiology Spectrum, 2025)
# Construct, isoform or probe ends are uncertain for at least one entry. At least one verdict was read from the data and is not stated in words by the source. Where a protein sequence is shown, tags need not be part of it.
# Target: T1, PhlF (2P24_PhlF) (Pseudomonas fluorescens 2P24) (UniProt Q9S6I5)
# T1 sequence (looked up, limits assumed): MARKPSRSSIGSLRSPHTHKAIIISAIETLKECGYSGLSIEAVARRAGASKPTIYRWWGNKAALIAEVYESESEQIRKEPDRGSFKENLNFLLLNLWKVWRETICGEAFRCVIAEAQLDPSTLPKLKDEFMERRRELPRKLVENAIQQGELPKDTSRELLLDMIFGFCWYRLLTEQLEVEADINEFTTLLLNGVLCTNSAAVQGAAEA
# Assay: EMSA
# Details: EMSA: 0.2 uM DNA, Tris-HCl pH 8.0 (printed as 0 mM), 0.5 mM KCl, 6 mM MgCl2, 0.1% glycerol, 2 mM EDTA, 1 mM DTT, 3 uM human serum albumin, 30 min at 25 C, 6% native PAGE, recombinant protein, protein details: N-terminal His6, label: 6-carboxyfluorescein
sequence,measurement,setting,value
ATGATACGAAACGTGCCGTATCGTTAAGGT (double strand) [phlA operator fragment (phlF-phlA intergenic)],binding result,no PLT,binds
same,binding result,"pyoluteorin (PLT) up to 1 mM, does not dissociate PhlF from DNA",binds
